These are yes or no findings as the source states them, for the method shown. Where a sequence is shown, tags or fusion partners need not be part of it.

The values that follow come from PMC12617493 (Science Advances, 2025).

The target in the assay is T1, GST-Ist2[590–946] (S. cerevisiae) (UniProt P38250).
T1 sequence: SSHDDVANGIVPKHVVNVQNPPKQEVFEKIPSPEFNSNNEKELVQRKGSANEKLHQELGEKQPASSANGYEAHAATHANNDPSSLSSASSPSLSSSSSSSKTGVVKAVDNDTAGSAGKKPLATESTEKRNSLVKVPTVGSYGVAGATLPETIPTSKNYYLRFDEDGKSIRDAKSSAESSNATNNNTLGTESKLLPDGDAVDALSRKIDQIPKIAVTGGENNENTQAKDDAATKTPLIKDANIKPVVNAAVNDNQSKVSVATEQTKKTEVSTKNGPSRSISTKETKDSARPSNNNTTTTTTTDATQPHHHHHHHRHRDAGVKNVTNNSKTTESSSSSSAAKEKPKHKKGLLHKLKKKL
The assay is described as follows: pull-down; GST constructs ([…]) immobilised on Glutathione Sepharose 4B beads; Osh6, its mutants, Osh4, ORD^Osh3 or ORD^ORP8 added at […]; 50 mM tris pH 7.4, 120 mM NaCl, 1 mM MgCl2, 1% TX-100, 1 mM DTT, 10% glycerol; 25°C, 1 hour; bound fraction by SDS-PAGE; both purified.

B1: ORD^Osh3 (Osh3[605–996]) (domain or fragment, UniProt P38713 605-996)
chain: SAQSSTETFTSKDLFALSYPKSVTRRNDIPEAAASPPSLLSFLRKNVGKDLSSIAMPVTSNEPISILQLISETFEYAPLLTKATQRPDPITFVSAFAISFLSIYRDKTRTLRKPFNPLLAETFELIREDMGFRLISEKVSHRPPVFAFFAEHLDWECSYTVTPSQKFWGKSIELNNEGILRLKFKTTGELFEWTQPTTILKNLIAGERYMEPVNEFEVHSSKGDKSHILFDKAGMFSGRSEGFKVSIIPPPSSNRKKETLAGKWTQSLANETTHETIWEVGDLVSNPKKKYGFTKFTANLNEITEIEKGNLPPTDSRLRPDIRAYEEGNVDKAEEWKLKLEQLQRERRNKGQDVEPKYFEKVSKNEWKYITGPKSYWERRKKHDWSDISQLW
As for B1, the binding result is listed as “no binding (tested: 2.5 μM)”.
